These are yes or no findings as the source states them, for the method shown. In cells and extracts the contact can be indirect. A yes stands for co-enrichment or nearness to the bait. Other partners may have been found.

Protein sequences, listed by entry. Tags and fused reporters are not part of them.
UniProt Q9QUJ7: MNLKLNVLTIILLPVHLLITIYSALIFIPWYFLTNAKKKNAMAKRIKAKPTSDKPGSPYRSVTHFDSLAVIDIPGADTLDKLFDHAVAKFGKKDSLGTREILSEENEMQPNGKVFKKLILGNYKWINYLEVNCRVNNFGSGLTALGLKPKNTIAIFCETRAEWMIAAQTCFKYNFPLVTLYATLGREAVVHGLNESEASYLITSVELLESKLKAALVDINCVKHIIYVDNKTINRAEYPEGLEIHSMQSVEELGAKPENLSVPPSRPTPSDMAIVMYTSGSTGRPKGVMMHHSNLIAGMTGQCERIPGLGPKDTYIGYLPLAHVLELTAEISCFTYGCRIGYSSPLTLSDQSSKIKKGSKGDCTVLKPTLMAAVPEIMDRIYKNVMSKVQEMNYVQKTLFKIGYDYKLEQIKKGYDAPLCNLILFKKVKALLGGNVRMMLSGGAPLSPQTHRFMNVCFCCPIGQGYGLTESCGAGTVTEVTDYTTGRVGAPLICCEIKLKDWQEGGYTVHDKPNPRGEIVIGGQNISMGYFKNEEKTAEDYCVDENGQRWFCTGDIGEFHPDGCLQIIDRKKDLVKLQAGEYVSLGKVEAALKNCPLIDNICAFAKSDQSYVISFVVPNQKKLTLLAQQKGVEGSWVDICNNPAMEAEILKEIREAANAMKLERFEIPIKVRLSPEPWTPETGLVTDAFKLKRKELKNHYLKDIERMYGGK

In the assay the target is long-chain-fatty-acid-CoA ligase 4 (Acsl4) (mouse (endogenous in primary cortical neurons)) (UniProt Q9QUJ7). Kind of assay: affinity purification with mass spectrometry; IP of primary cortical neuron lysates with Acsl4 antibody, gel with silver staining, LC-MS of gel strips.

B1: F-box only protein 10 (Fbxo10) (protein, UniProt Q7TQF2 1-950)
chain: METGGLPLELWRMILAYLHLPDLGRCSLVCRAWYELILSLDSTRWRQLCLGCTECRHPNWPNQPDVEPESWREAFKQHYLASKTWTKNALDLESSICFSLFRRKKERRTLSVGPGHEFDSLGSALAMASLYDRIVLFPGVYEEQGEIILKVPVEIVGQGKLGEVALLASIDQHCSTTRVCNLVFMPAWFSPIMYKTTSGHIQFDNCNFENGHIQVHGPGTCQVKFCTFKNTHVFLHNVPLCMLENCEFVGSENNCVTVEGHPSADKNWAYKYLLGLIKSSPIFLPAEDHDFLMSLDLESRDQAWSPRTCDIVIEGSQSPTSPVCSSPKPGSKEAEVGSDGERVAQTPDSSDGGLSPSGEDEDDEQLTYRLSYQVQGPRPVLGGSFLGPPLPGASIQLPSCLVLNSLHQELQKDKEAMALASSVQGCLIRKCLFRDGKGGVFVCSYGRAKMEGNVFRNLTYAVRCIHNSKIVMLRNDIYRCRASGIFLRLEGGGLIAGNNIYHNAEAGVDIRKKSNPLILCNQIHHGLRSGIVVLGNGKGVIRNNQIFSNKEAGIYILYHGNPIVSGNHIFKGRAAGIAVNENGKGLITENVIRENQWGGVDIRRGGVPILRSNLICFGYSDGVVVGDEGKGLIEGNTIYANKGCGVWMMSSSLPHVTSNHVSYNGLYGVAVFSQKDGEFPGGHGAQENFSEDGDAILWEAELEKEDDPLRRPITVALVESNSINHNGASGIFVQSSEALQVVANVIHANGDRGITIVQSSQLTRVANNSISCNRQSGVKVEFQCKVELRGNGIYDNRGHGIITKGDGTAVVENDIIGNRGSGLQLLPRSDTKVLKNRIHSFRAYGIAVRGRVKALVQENIIFQGKTNKTIFQQITNNRECIMQNNKFLVFKKKSDTWRLVNPPARPHLENSLRGSSAAHSGHKVTAMATRITARVEGGYHSNRSIFCTIL
B1: the binding result is recorded as “binds”.

Source of the values: PMC8270965.
